PubChem BioAssay AID686938 | Drosophila RNAi Screening Center, 2013
Assay: 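Fly genes required for calcium entry once internal stores are emptied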 (primary screen). Cells: Drosophila S2R+ cells. Reagents: long dsRNA against Drosophila genes, about 0.25 µg dsRNA per well, roughly 10,000 cells. Timing: 5 days of knock-down before the calcium assay. Treatment: thapsigargin (SERCA pump blocker) to empty calcium stores; entry signal taken 4 min after adding it. Measurement: 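Per-well fluo-4 fluorescence in two replicates, unnormalised, measured in resting cells and 4 min after store depletion by the SERCA blocker thapsigargin; ratio of the two present in few wells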. Reading the numbers: calcium entry signal: higher = stronger calcium signal after store depletion; entry to resting ratio: higher = more calcium entry relative to resting level; resting calcium signal: higher = higher resting calcium signal. Active means: 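Hit if the duplicate-averaged plate z-score for entry over resting signal is under −3; wells with weak total dye signal (Fmax z < −2) or more than 5 off-targets removed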. Meaning of the calls: active = strongly reduced calcium entry; inactive = no strong reduction.
In all, the deposit lists about 23,000 reagents; below is an unselected part of those with a known target gene and a result. In the full data, 75 (0.33%) got an active call. 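Raw plate signals without normalisation; calls rest on plate z-scores that were not deposited; ratio present for only 364 wells.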 Entries without a mark were called inactive. The numbers tell different reagents against one gene apart. Names joined by + are all predicted targets of the reagent. No sequences are given here. The record does not give: the dose of the treatment.

| gene knocked down | dsRNA no. | calcium entry signal, replicate 1 (fluorescence units) | calcium entry signal, replicate 2 (fluorescence units) | entry to resting ratio | resting calcium signal, replicate 1 (fluorescence units) | resting calcium signal, replicate 2 (fluorescence units) |
| --- | --- | --- | --- | --- | --- | --- |
| Or1a | 1 | 4.46e7 | 5.37e7 | 2.1 | 2.14e7 | 2.08e7 |
| tsg | 1 | 3.85e7 | 5.64e7 | – | 1.82e7 | 2.54e7 |
| CtIP | 1 | 2.56e7 | 4.04e7 | – | 1.28e7 | 1.72e7 |
| CG13712 | 1 | 2.99e7 | 7.76e7 | – | 1.37e7 | 2.65e7 |
| IFT57 | 1 | 3.28e7 | 3.66e7 | – | 1.67e7 | 1.69e7 |
| CG18179 | 1 | 3.14e7 | 3.68e7 | – | 1.54e7 | 1.63e7 |
| CecA2 | 1 | 1.95e7 | 2.81e7 | – | 1.08e7 | 1.31e7 |
| CG4752 | 1 | 2.34e7 | 2.67e7 | – | 1.24e7 | 1.23e7 |
| CG10650 | 1 | 5.85e7 | – | – | 2.65e7 | – |
| Spt5 | 1 | 1.97e7 | 2.20e7 | – | 1.33e7 | 1.39e7 |
| nej | 1 | 2.74e7 | 3.46e7 | – | 1.58e7 | 1.91e7 |
| nej | 2 | 2.31e7 | 2.42e7 | – | 1.21e7 | 1.32e7 |
| CG8026 | 1 | 2.95e7 | 3.33e7 | – | 1.13e7 | 1.56e7 |
| CG8026 | 2 | 4.07e7 | 4.10e7 | – | 1.93e7 | 1.63e7 |
| CG8300 | 1 | 4.30e7 | 4.26e7 | – | 2.04e7 | 2.03e7 |
| CG8300 | 2 | 4.41e7 | 3.32e7 | – | 2.52e7 | 1.50e7 |
| CG31482 | 1 | 3.98e7 | 2.84e7 | – | 1.74e7 | 1.41e7 |
| mge | 1 | 3.29e7 | 2.77e7 | – | 1.74e7 | 1.32e7 |
| CG32121 | 1 | 4.30e7 | 4.39e7 | – | 2.10e7 | 2.22e7 |
| CG14421 | 1 | 3.79e7 | 4.12e7 | 2.3 | 1.65e7 | 1.63e7 |
| Jhbp7 | 1 | 4.68e7 | 4.13e7 | – | 2.21e7 | 1.72e7 |
| bin | 1 | 3.78e7 | 4.74e7 | – | 1.82e7 | 2.26e7 |
| mmy | 1 | 6.33e7 | – | – | 3.25e7 | – |
| pgc | 1 | 4.28e7 | 5.45e7 | – | 1.99e7 | 2.29e7 |
| CG14132 | 1 | 2.53e7 | 2.90e6 | – | 1.31e7 | 3.37e6 |
| Gr68a | 1 | 2.27e7 | 3.62e7 | – | 1.17e7 | 1.69e7 |
| Art9 | 1 | 4.14e7 | 4.44e7 | – | 1.93e7 | 7.23e7 |
| CG31213 | 1 | 2.64e7 | 3.34e7 | – | 3.95e7 | 1.57e7 |
| CG31213 | 2 | 2.52e7 | 3.49e7 | – | 3.32e7 | 1.64e7 |
| Obp57c | 1 | 2.84e7 | 4.98e7 | – | 2.06e7 | 2.17e7 |
| spri | 1 | 3.22e7 | 5.16e7 | – | 1.92e7 | 3.10e7 |
| spri | 2 | 4.07e7 | 4.83e7 | – | 1.84e7 | 2.36e7 |
| spri | 3 | 3.64e7 | 5.68e7 | – | 1.71e7 | 2.59e7 |
| spri | 4 | 3.67e7 | 3.22e7 | – | 1.64e7 | 1.50e7 |
| spri | 5 | 2.61e7 | 2.83e7 | – | 1.29e7 | 1.34e7 |
| spri | 6 | 3.10e7 | 3.31e7 | – | 1.54e7 | 1.62e7 |
| spri | 7 | 3.61e7 | 3.44e7 | – | 1.95e7 | 1.48e7 |
| CG34447 | 1 | 4.22e7 | 4.77e7 | – | 1.82e7 | 2.06e7 |
| CG11741 | 1 | 4.22e7 | 2.89e7 | – | 2.11e7 | 1.56e7 |
| Ugt316A1 | 1 | 2.52e7 | 4.03e7 | – | 1.24e7 | 1.67e7 |
| snRNP-U1-C | 1 | 1.68e7 | 1.94e7 | – | 1.06e7 | 4.60e7 |
| IFT20 + CG10395 | 1 | 3.77e7 | 4.27e7 | – | 1.97e7 | 1.78e7 |
| Cow | 1 | 3.64e7 | 2.19e7 | – | 1.80e7 | 1.14e7 |
| Cow | 2 | 4.72e7 | 5.10e7 | – | 2.31e7 | 2.17e7 |
| rtp | 1 | 2.36e7 | 3.09e7 | – | 9.71e6 | 1.37e7 |
| Trmt112 | 1 | 3.17e7 | 5.04e7 | – | 1.42e7 | 1.97e7 |
| Pp1-Y2 | 1 | 2.52e7 | 3.46e7 | – | 1.31e7 | 1.57e7 |
| CG6574 | 1 | 3.59e7 | 3.30e7 | – | 1.69e7 | 1.74e7 |
| CG30048 | 1 | 3.57e7 | 4.14e7 | – | 1.77e7 | 2.20e7 |
| Pfk | 1 | 3.44e7 | 3.96e7 | – | 2.03e7 | 2.10e7 |
| CG7251 | 1 | 4.68e7 | – | – | 2.21e7 | – |
| daed | 1 | 3.41e7 | – | – | 1.66e7 | – |
| mEFTu1 | 1 | 2.80e7 | 3.45e7 | – | 1.23e7 | 1.60e7 |
| Inx6 | 1 | 4.37e7 | 3.28e7 | – | 2.43e7 | 1.56e7 |
| CG31855 | 1 | 2.82e7 | 2.22e7 | – | 1.35e7 | 1.09e7 |
| vih | 1 | 1.67e7 | 2.52e7 | – | 1.13e7 | 1.43e7 |
| CG14635 | 1 | 5.09e7 | 5.60e7 | 2.1 | 2.42e7 | 2.24e7 |
| Acadvl | 1 | 3.12e7 | 2.62e7 | – | 1.54e7 | 1.37e7 |

Entries above whose target name starts with S or s (9):
| gene knocked down | dsRNA no. | calcium entry signal, replicate 1 (fluorescence units) | calcium entry signal, replicate 2 (fluorescence units) | entry to resting ratio | resting calcium signal, replicate 1 (fluorescence units) | resting calcium signal, replicate 2 (fluorescence units) |
| --- | --- | --- | --- | --- | --- | --- |
| Spt5 | 1 | 1.97e7 | 2.20e7 | – | 1.33e7 | 1.39e7 |
| spri | 1 | 3.22e7 | 5.16e7 | – | 1.92e7 | 3.10e7 |
| spri | 2 | 4.07e7 | 4.83e7 | – | 1.84e7 | 2.36e7 |
| spri | 3 | 3.64e7 | 5.68e7 | – | 1.71e7 | 2.59e7 |
| spri | 4 | 3.67e7 | 3.22e7 | – | 1.64e7 | 1.50e7 |
| spri | 5 | 2.61e7 | 2.83e7 | – | 1.29e7 | 1.34e7 |
| spri | 6 | 3.10e7 | 3.31e7 | – | 1.54e7 | 1.62e7 |
| spri | 7 | 3.61e7 | 3.44e7 | – | 1.95e7 | 1.48e7 |
| snRNP-U1-C | 1 | 1.68e7 | 1.94e7 | – | 1.06e7 | 4.60e7 |
